Experimental findings from publication PMC4958302 are described below.

The assay concerns the target polymerized microtubules from purified bovine brain α/β-tubulin (bovine). As to the kind of experiment: co-sedimentation; in vitro microtubule co-sedimentation: bovine brain α/β-tubulin (5 μM) and GST–CEP295 fragments in RG1 buffer (80 mM PIPES pH 6.8, 1 mM EGTA, 1 mM MgCl2, 1 mM GTP) with 15 μM Taxol, 37°C; 50% glycerol cushion; 300,000 g, 30 min, 37°C; SDS-PAGE, Coomassie Blue; both purified.

These are yes or no findings as the source states them, for the method shown. A result given as binding can be weak or reduced; the word gives no strength. Where a sequence is shown, tags or fusion partners need not be part of it.

B1: GST–K6C (CEP295 residues 2472–2601) (domain or fragment, UniProt Q9C0D2 2472-2601)
chain: LTPVPGSLQEAFIKRKKSFMERSHQRQKEIRNKIHVSENSQIKTVKEKPSISSSVSRLKGVNKVRASFPEDRKTTQALRHQRGLRLYNQLAEVKQQKEEKTKQEAYAQNRARAKEFHKKTLEKLRAKNTC
With B1, the binding result is recorded as “binds”.
